The other results are listed elsewhere or left out.
Legend:
Assay in all cases: log2 fold change, soluble protein after heating vs DMSO (PISA); higher = thermal stabilisation; K562 lysate, 10 uM; active = over 0.2 and 3.5 SD of the protein, either way, in both replicates (recomputed)
[1] = compound: C1=CC=C(C=C1)[C@H](COC2=CC3=C(C=C2)NC(=O)N3)NC(=O)C4=CC=CN(C4=O)CC5=CC(=C(C=C5)F)F
Outline: (§1)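 A 30 min treatment with 10 μM compound was applied to crude K562 extract at 1 mg/mL protein in PBS pH 7.4 with 1 mM MgCl2. Heating for 3 min spanned 48°C-58°C, after which aliquots were pooled, adjusted to 0.5% NP-40 at 4°C and spun at 21,000xg for 90 min. TMTpro 16plex LC-MS/MS of the supernatant, with channel sums equalised, gave values recorded as log-two fold change in thermal stability against solvent controls, from duplicates.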

By UniProt entry, the sequences of proteins in these tests, tags left out. Where a name states a change or a piece, a line headed by the entry shows the natural chain unless it says otherwise.
UniProt Q13867: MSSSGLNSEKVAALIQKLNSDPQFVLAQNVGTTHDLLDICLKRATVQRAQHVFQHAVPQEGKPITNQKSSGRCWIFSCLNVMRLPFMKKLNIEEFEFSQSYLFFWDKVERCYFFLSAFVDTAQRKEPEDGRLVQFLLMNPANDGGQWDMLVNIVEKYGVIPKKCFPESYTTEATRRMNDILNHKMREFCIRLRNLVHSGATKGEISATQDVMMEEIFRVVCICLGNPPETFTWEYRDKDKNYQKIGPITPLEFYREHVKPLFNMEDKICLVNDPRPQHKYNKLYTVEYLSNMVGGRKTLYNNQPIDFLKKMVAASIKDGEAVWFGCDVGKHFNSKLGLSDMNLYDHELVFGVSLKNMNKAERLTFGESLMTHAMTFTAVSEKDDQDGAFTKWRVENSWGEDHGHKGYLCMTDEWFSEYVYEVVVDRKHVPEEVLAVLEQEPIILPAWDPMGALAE
UniProt P12694: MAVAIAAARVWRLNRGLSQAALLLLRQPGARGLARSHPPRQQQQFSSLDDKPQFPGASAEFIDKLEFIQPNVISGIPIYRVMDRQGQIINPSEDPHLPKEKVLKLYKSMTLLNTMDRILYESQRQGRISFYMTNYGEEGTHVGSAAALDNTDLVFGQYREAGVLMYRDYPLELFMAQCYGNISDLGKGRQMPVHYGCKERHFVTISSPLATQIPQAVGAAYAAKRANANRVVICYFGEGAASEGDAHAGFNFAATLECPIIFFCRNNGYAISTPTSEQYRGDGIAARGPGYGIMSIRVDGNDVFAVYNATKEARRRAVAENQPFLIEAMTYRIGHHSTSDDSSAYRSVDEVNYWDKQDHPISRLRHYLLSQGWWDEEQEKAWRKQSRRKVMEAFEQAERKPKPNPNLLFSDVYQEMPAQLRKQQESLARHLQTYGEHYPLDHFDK
UniProt Q14457, whole entry, looked up: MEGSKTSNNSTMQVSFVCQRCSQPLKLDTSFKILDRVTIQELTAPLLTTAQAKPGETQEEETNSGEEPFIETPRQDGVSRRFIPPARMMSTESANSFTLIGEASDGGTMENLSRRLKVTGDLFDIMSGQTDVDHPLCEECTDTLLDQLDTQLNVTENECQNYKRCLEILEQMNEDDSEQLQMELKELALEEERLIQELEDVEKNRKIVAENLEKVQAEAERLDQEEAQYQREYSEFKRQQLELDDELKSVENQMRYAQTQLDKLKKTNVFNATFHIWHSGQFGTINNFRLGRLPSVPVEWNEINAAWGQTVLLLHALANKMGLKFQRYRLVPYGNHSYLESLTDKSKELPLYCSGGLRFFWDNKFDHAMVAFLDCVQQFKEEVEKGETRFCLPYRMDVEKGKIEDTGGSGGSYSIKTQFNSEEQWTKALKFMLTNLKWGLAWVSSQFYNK
UniProt Q96KE9: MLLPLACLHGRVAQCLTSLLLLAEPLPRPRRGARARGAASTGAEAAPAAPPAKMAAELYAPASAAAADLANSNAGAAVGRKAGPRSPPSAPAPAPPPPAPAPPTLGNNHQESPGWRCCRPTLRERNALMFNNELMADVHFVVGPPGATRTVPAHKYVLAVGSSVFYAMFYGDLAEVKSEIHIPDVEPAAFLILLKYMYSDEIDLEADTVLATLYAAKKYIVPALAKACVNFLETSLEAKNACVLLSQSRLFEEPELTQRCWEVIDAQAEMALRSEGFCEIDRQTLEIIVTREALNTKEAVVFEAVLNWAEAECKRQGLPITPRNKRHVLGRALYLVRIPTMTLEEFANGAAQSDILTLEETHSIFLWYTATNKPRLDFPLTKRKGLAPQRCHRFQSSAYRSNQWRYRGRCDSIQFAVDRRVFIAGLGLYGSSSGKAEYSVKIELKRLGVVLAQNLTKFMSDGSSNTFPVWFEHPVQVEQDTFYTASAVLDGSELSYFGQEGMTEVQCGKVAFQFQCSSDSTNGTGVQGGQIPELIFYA
UniProt Q9NYF8, whole entry, looked up: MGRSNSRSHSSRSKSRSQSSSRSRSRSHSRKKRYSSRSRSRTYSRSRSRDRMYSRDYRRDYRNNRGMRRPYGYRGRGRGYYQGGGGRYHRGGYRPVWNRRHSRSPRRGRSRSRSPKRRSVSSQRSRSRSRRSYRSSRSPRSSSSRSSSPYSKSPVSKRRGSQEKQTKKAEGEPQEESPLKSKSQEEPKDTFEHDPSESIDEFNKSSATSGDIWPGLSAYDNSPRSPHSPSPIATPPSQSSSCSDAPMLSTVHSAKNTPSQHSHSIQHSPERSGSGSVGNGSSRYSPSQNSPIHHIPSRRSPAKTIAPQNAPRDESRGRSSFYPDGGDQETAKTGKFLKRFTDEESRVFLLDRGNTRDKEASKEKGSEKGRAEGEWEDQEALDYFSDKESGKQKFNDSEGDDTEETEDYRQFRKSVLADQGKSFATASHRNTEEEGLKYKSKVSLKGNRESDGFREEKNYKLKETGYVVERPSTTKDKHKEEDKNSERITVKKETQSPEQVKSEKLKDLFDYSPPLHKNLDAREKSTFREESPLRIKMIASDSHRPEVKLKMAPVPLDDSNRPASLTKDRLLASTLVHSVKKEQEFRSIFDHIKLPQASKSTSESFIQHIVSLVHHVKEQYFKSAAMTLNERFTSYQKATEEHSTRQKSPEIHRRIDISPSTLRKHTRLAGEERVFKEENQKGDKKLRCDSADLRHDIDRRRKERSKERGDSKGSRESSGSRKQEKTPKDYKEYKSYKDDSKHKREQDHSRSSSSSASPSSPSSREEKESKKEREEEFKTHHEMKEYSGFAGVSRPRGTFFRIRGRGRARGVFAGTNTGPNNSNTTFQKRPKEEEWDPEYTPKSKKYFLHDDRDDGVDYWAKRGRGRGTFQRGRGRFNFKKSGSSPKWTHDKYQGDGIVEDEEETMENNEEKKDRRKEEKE
UniProt P54687: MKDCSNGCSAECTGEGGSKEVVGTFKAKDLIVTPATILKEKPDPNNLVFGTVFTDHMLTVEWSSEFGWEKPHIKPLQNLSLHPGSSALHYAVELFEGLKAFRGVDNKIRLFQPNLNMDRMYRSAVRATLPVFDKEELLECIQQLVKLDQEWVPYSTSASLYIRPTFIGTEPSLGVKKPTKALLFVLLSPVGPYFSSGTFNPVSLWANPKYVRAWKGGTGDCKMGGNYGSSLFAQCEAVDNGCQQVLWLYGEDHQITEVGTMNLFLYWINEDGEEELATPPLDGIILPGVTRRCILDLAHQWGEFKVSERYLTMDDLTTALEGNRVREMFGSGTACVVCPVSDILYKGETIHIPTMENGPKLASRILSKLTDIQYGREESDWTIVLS
UniProt P15056, whole entry, looked up: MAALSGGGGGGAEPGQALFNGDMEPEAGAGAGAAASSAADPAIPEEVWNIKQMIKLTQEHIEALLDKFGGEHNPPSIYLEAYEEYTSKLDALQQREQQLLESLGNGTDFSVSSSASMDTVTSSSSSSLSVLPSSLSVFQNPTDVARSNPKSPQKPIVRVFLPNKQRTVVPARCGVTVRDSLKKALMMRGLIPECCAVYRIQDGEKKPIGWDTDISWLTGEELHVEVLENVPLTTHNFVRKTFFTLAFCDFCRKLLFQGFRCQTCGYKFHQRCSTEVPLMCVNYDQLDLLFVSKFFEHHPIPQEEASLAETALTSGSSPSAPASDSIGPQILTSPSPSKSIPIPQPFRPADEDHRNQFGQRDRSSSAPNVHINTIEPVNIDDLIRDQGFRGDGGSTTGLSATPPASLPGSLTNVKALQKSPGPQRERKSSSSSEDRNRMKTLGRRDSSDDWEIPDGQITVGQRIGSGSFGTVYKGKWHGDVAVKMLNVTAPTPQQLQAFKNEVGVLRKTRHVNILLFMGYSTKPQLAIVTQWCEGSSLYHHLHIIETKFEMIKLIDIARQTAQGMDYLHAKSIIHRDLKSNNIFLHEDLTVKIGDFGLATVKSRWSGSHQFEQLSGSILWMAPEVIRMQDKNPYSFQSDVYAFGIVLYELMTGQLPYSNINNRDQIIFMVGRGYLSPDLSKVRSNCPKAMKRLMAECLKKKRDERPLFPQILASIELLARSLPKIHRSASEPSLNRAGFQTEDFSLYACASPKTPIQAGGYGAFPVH
UniProt P43251: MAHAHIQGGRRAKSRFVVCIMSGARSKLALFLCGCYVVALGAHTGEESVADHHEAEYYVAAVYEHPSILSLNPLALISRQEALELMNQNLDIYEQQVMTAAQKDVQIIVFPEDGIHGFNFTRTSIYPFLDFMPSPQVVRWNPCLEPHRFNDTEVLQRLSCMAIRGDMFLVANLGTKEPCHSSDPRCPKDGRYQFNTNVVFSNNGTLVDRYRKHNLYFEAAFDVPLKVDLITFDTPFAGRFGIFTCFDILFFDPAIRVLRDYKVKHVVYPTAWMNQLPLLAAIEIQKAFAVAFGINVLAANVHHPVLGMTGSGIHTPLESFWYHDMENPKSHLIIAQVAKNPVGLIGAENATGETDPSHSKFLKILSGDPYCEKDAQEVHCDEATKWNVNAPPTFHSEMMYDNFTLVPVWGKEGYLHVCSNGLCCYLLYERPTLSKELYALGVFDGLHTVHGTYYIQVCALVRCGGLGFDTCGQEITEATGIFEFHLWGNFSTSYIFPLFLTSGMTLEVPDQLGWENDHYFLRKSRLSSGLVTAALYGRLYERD
UniProt P30043: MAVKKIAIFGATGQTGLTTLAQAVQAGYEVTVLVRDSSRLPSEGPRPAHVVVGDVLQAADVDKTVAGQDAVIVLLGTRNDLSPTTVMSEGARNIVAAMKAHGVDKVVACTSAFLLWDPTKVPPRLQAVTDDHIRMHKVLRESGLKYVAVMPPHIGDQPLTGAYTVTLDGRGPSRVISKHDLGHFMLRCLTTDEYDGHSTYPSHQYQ
UniProt Q9BUT1: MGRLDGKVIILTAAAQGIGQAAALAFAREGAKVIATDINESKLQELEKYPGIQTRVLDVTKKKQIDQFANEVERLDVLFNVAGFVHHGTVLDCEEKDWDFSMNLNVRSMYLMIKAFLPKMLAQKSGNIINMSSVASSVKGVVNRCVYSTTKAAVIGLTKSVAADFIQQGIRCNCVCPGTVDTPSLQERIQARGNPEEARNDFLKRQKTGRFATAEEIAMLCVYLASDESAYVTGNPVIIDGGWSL
UniProt Q96B45: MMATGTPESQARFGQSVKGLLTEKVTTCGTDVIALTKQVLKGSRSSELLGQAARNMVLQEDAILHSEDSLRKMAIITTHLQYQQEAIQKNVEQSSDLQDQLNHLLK
UniProt Q53S33: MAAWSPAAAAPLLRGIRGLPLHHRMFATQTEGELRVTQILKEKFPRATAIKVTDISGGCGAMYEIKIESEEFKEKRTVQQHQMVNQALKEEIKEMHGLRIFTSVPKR
UniProt P51572: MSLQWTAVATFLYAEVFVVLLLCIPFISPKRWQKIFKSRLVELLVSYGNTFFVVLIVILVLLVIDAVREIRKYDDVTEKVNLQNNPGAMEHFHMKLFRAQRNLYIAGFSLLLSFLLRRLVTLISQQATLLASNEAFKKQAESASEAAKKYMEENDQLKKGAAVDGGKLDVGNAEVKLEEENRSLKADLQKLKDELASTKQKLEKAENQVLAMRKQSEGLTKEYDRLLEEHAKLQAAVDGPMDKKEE
UniProt Q06187: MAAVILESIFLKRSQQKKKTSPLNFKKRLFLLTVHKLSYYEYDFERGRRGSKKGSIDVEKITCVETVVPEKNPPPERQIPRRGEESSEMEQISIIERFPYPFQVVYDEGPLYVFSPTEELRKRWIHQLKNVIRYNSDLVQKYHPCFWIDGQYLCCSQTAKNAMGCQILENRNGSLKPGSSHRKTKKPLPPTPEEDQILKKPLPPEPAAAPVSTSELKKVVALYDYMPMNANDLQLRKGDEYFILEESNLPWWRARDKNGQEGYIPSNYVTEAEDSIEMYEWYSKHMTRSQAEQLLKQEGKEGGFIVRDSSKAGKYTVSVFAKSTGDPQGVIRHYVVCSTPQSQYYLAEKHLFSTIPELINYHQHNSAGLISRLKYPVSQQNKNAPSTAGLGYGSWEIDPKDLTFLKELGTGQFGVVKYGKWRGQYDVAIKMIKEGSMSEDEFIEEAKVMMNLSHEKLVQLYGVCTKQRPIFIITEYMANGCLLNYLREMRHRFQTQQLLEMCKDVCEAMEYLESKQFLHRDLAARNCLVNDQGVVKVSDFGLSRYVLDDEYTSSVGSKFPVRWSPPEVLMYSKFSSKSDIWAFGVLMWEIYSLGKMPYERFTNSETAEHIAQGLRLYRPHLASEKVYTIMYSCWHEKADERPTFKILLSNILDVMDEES
UniProt O43505: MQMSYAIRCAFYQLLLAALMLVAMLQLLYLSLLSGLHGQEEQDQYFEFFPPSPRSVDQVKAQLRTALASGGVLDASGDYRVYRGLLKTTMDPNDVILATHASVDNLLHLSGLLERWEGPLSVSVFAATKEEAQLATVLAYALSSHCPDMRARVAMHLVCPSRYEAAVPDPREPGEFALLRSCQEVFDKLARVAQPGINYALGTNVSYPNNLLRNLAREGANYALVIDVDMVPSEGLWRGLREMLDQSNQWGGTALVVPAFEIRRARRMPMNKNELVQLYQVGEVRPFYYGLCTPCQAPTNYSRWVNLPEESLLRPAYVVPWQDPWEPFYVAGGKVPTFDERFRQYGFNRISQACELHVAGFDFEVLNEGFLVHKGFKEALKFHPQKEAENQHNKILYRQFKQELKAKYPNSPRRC

[2] = compound: CC1=C(SC2=C1C(=N[C@H](C3=NN=C(N32)C)CC(=O)N)C4=CC=C(C=C4)Cl)C
Outline: as §1

[3] = compound: CC1=C2C(=CC=C1)N=C(N(C2=O)C3=CC=CC=C3C)CN4C=NC5=C(N=CN=C54)N
Outline: as §1

[4] = compound: Cc1sc2c(c1C)C(c1ccc(Cl)cc1)=N[C@@H](CC(=O)OC(C)(C)C)c1nnc(C)n1-2
Outline: as §1

[5] = compound: c1ccc([C@@H]2C[C@H]2NC2CCNCC2)cc1
Outline: as §1

Measured: log2 fold change

BLMH (UniProt Q13867)
inactive: [1] 0.017 | [2] 0.007 | [3] -0.018 | [4] -0.027 | [5] -0.058

BCKDHA (UniProt P12694)
inactive: [1] 0.049 | [2] -0.041 | [3] 0.134 | [4] -0.044 | [5] -0.027

BECN1 (UniProt Q14457)
inactive: [1] -0.001 | [2] -0.058 | [3] 0.013 | [4] -0.011 | [5] -0.017

BTBD6 (UniProt Q96KE9)
inactive: [1] 0.072 | [2] 0.057 | [3] -0.054 | [4] -0.108 | [5] -0.387

BAIAP2 (UniProt Q9UQB8)
inactive: [1] -0.016 | [2] 0.006 | [3] 0.008 | [4] 0.06 | [5] 0.044

BSG (UniProt P35613)
inactive: [1] -0.009 | [2] 0.017 | [3] -0.005 | [4] -0.007 | [5] 0.008

BCLAF1 (UniProt Q9NYF8)
inactive: [1] 0.048 | [2] -0.016 | [3] 0.043 | [4] -0.034 | [5] 0.1

BRD8 isoform 2 (UniProt Q9H0E9)
inactive: [1] 0.019 | [2] 0.005 | [3] 0.003 | [4] -0.024 | [5] -0.014

BCAT1 (UniProt P54687)
inactive: [1] 0.014 | [2] 0.02 | [3] -0.009 | [4] -0.012 | [5] -0.031

Pulled one by one from the list above, 2 records:
BLMH (UniProt Q13867)
inactive: [1] 0.017 | [2] 0.007 | [3] -0.018 | [4] -0.027 | [5] -0.058

BSG (UniProt P35613)
inactive: [1] -0.009 | [2] 0.017 | [3] -0.005 | [4] -0.007 | [5] 0.008

Additional records:

BCKDHB (UniProt P21953)
inactive: [1] 0.027 | [2] 0.023 | [3] 0.09 | [4] 0.074 | [5] 0.119

BRAF (UniProt P15056)
inactive: [1] -0.024 | [2] -0.051 | [3] 0.012 | [4] -0.017 | [5] -0.06

BTD isoform 3 (UniProt P43251)
inactive: [1] 0.141 | [2] 0.014 | [3] -0.07 | [4] 0.021 | [5] 0.035

BLVRB (UniProt P30043)
inactive: [1] 0.01 | [2] -0.052 | [3] 0.025 | [4] 0.022 | [5] -0.011

BNIP2 (UniProt J3KN59)
inactive: [1] 0.014 | [2] -0.037 | [3] 0.012 | [4] -0.009 | [5] 0.037

BLOC1S4 (UniProt Q9NUP1)
inactive: [1] 0.017 | [2] -0.03 | [3] -0.006 | [4] -0.006 | [5] 0.038

BDH2 (UniProt Q9BUT1)
inactive: [1] -0.037 | [2] 0.049 | [4] 0.055

BORCS7 (UniProt Q96B45)
inactive: [1] 0.1 | [2] 0 | [3] 0.123 | [5] -0.005

BCL7A isoform 2 (UniProt Q4VC05)
inactive: [1] 0.033 | [2] -0.066 | [3] 0.005 | [4] 0.143 | [5] 0.091

BRIX1 (UniProt Q8TDN6)
inactive: [1] 0.022 | [2] -0.023 | [3] 0.017 | [4] -0.032 | [5] 0.022

BIRC6 (UniProt Q9NR09)
inactive: [1] 0.001 | [2] 0.003 | [3] -0.007 | [4] 0.004 | [5] 0.004

BOLA3 (UniProt Q53S33)
inactive: [1] 0.006 | [2] -0.012 | [3] 0.015 | [4] -0.002 | [5] -0.073

BCAP31 isoform 2 (UniProt P51572)
inactive: [1] -0.011 | [2] -0.025 | [3] -0.019 | [4] 0.001 | [5] -0.035

BCKDK (UniProt O14874)
inactive: [1] -0.036 | [2] -0.007 | [3] -0.037 | [4] 0.016 | [5] 0.012

BTK isoform 2 (UniProt Q06187)
inactive: [1] -0.049 | [2] -0.033 | [3] 0.012 | [4] -0.002 | [5] -0.064

B4GAT1 (UniProt O43505)
inactive: [1] -0.108 | [2] -0.17 | [4] -0.044
